Measurements published in patent US20090264345A1 (priority 2006, published 2009).

Experiment: peptide synthesis
Conditions: cyclisation step

## cyclo(FLVLL)
  cyclisation yield: 65%
